PubChem BioAssay AID504444 (National Center for Advancing Translational Sciences (NCATS), 2011)
The campaign covered roughly 360,000 compounds. About 7,500 (2.1%) were called active. This list was built around the results that the source calls inconclusive (neither active nor inactive); the mix of calls is not that of the screen. Calls follow the shape of the dose curve; as a rule, active = well fitted inhibition curve with a large enough effect; inconclusive = small, poorly fitted or top-dose-only effect, or effect the other way; inactive = flat fitted curve, though single readings scatter. Where the call is inconclusive, the potency comes from a doubtful curve fit.

Assay: Nrf2 qHTS screen for inhibitors; also: nearly all actives have a fitted effect of over 60% in size
Settings: A549 ARE-Fluc reporter, luciferase luminescence, 18-24 h; series mostly up to 46 µM
How it was run: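 Nrf2 function is reported as luminescence of an ARE-controlled luciferase in A549 cells. Compounds were tested at several concentrations, and a CellTiter-Fluor read on the same wells flagged cytotoxicity.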
Potency is read from the fitted curve at half-maximal effect.

Compound | Potency
Clc1ccc(Sc2cnc3ccccc3n2)cc1 | inconclusive: 13 µM [activator, partial curve, poor fit]
COC(=O)N/N=C/c1cccc(OCCSc2ccc(Cl)cc2)c1 | inconclusive: 1.84 µM [activator, partial curve, poor fit]
C=CCn1c(=O)c2c(nc(Br)n2Cc2ccccc2Cl)n(C)c1=O | inconclusive: 29.1 µM [falling, single point]
CC1(c2ccc3ccccc3c2)NC(=O)N(CC(=O)N2CCC(C(N)=O)CC2)C1=O (configuration not stated) | inactive
O=C(COC(=O)c1cccs1)Nc1cccc(S(=O)(=O)N2CCOCC2)c1 | inconclusive: 3.66 µM [activator, partial curve, poor fit]
O=C(c1cc(C2CC2)on1)N1CCCC(N2CCN(c3ccc(F)cc3)CC2)C1 (configuration not stated) | inconclusive: 25.9 µM [activator, partial curve, poor fit]
COc1cccc2oc3ccc(C#CC4(N)CCCCC4)cc3c(=O)c12 | inactive
CCCc1nn(C)c(C(=O)Nc2ccccc2)c1Cl | inconclusive: 16.4 µM [activator, single point]
O=C(Nc1ccc2c(c1)CCC2)Nc1ccccc1F | inconclusive: 2.91 µM [activator, partial curve]
COc1ccc(S(=O)(=O)N2CCCCC2)cc1NC(=O)Cc1cccc(C(F)(F)F)c1 | inactive
COCn1c(=O)c2c(nc(SC3=NCCS3)n2Cc2ccccc2C)n(COC)c1=O | inconclusive: 0.0411 µM [falling, full curve, poor fit]
O=C(NCC1CCCO1)c1cccc(Oc2ccc([N+](=O)[O-])cc2Cl)c1 (configuration not stated) | inconclusive: 18.4 µM [falling, partial curve, poor fit]
CC(=O)c1ccc(N2CCN(C(=O)/C=C/c3ccc(S(=O)(=O)N4CCOCC4)cc3)CC2)cc1 | inconclusive: 2.59 µM [falling, full curve, poor fit]
O=C(/C=C/c1ccco1)Nc1scc(-c2ccccc2)c1C(=O)O | inconclusive: 4.11 µM [activator, single point]
CC(NC(=O)NNC(=O)c1ccncc1)(C(F)(F)F)C(F)(F)F | inconclusive: 13 µM [activator, partial curve]
COc1cccc(NC(=O)CSc2nc(C3CC3)nc3ccccc23)c1 | inconclusive: 2.06 µM [falling, partial curve, poor fit]
COc1ccc(CN2C(=O)c3cccnc3C2Nc2cc(Cl)ccc2OC)cc1 (configuration not stated) | inactive
O=C(Nc1nnc(S(=O)(=O)N2CCCCC2)s1)c1ccc(Cl)cc1 | inconclusive: 29.1 µM [activator, single point]
CCn1c(SCC(=O)Nc2cccc(F)c2)nc2c(c1=O)SC(C)C2 (configuration not stated) | inconclusive: 5.17 µM [falling, partial curve, poor fit]
CC(=O)/C(C#N)=C1\NC(=O)C(Cc2ccccc2Cl)S1 (configuration not stated) | inconclusive: 1.84 µM [activator, partial curve, poor fit]
Cc1nc(SCC(=O)NCC2CCCO2)c2cc(-c3ccccc3)sc2n1 (configuration not stated) | inconclusive: 29.1 µM [activator, single point]
O=C(N/N=C/c1ccncc1)c1ccc(COc2cccc3cccnc23)cc1 | inconclusive: 16.4 µM [falling, partial curve, poor fit]
N#Cc1cc2cc3c(cc2nc1N1CCOCC1)OCO3 | inconclusive: 6.51 µM [activator, single point]

Compound | Potency
CC(C)(C)NC(=O)CSc1nnc(NC(=O)CCc2ccccc2)s1 | inconclusive: 16.4 µM [falling, partial curve, poor fit]
CCOc1cc(NC(=O)Nc2ccc(F)cc2)c(OCC)cc1NC(=O)CC | inconclusive: 0.731 µM [falling, full curve, poor fit]
CCN(CC)c1ccc2cc(-c3nc4ccccc4n3C)c(=O)oc2c1 | inconclusive: 9.2 µM [activator, partial curve]
Cc1c(C(=O)N2CCc3ccccc32)oc2ccccc12 | inconclusive: 6.51 µM [activator, partial curve]
O=S1(=O)N=C(Oc2ccccc2F)c2ccccc21 | inconclusive: 29.1 µM [activator, single point]
CS(=O)(=O)N1N=C(c2ccccc2)CC1c1ccc2c(c1)OCO2 (configuration not stated) | inconclusive: 25.9 µM [activator, single point]
O=C(CSc1ncccn1)N1CCN(C(c2ccccc2)c2ccccc2)CC1 | inactive
CC(=O)Nc1ccc(NC(=O)c2sc3nc4n(c(=O)c3c2C)CCCCC4)cc1 | inconclusive: 18.4 µM [falling, single point]
CCOC(=O)N/N=C/c1cccc(Cl)c1Cl | inconclusive: 29.1 µM [activator, single point]
O=c1c2ccccc2nc(SCc2nnc(-c3ccccc3Br)o2)n1-c1ccccc1 | active: 10.3 µM
COc1cc([N+](=O)[O-])cc(/C=C2/SC(=S)N(Cc3ccccc3)C2=O)c1O | active: 20.6 µM
O=C(NC(=S)N1CCc2ccccc21)C1CCC1 | inconclusive: 16.4 µM [activator, single point]
CCOc1ccc(-c2cn3c(n2)sc2cc(C(=O)NCCC4=CCCCC4)ccc23)cc1 | inconclusive: 29.1 µM [activator, single point]
CCc1c2c(nc3ccc4c(c13)OCCO4)-c1nc3ccccc3c(=O)n1C2 | active: 0.259 µM
CCC1(c2ccc(F)cc2)NC(=O)N(CC(=O)NC2CCCC(C)C2C)C1=O (configuration not stated) | inactive
Cc1noc(C)c1COc1ccccc1C(=O)N1CCN(S(=O)(=O)c2ccccc2Br)CC1 | inactive
O=C(NC1CCSc2ccccc21)c1ccccc1Br (configuration not stated) | inactive
COc1ccc(N(Cc2ccccc2)C(=O)c2ccccc2[N+](=O)[O-])cc1 | inconclusive: 0.461 µM [falling, full curve, poor fit]
N#Cc1c(NC(=O)C2CC(c3c(F)cccc3Cl)=NO2)sc2c1CCC2 (configuration not stated) | inconclusive: 29.1 µM [falling, single point]
O=C(Nc1ccc(S(=O)(=O)N2CCCC2)cc1)C1CCN(S(=O)(=O)c2ccc(F)cc2)CC1 | active: 23.1 µM
CCC(Oc1ccccc1)C(=O)Nc1cc(C(F)(F)F)ccc1N1CCOCC1 (configuration not stated) | inconclusive: 6.51 µM [falling, partial curve, poor fit]
Cc1ccc(CCNC(=O)C2CCCN(S(C)(=O)=O)C2)cc1 (configuration not stated) | inconclusive: 29.1 µM [activator, single point]
COc1ccc(N(C(=O)c2cnccn2)C(C(=O)NC2CCCCC2)c2ccccc2)cc1 (configuration not stated) | inactive

Compound | Potency
COc1ccccc1CNC(=O)c1ccc(NC(=O)N2CC(C)Sc3ccccc32)cc1 (configuration not stated) | inconclusive: 29.1 µM [falling, single point]
Cn1c(SCc2ccc(F)cc2Cl)nc2ccccc2c1=O | inconclusive: 25.9 µM [falling, single point]
CCc1ccc(NC(=O)C(Cc2ccccc2)NS(=O)(=O)c2ccc3c(c2)CCN3C(C)=O)cc1 (configuration not stated) | inactive
Cn1nc(C(F)(F)F)c(C(=O)Nc2cccc(C(F)(F)F)c2)c1SCc1ccc(Cl)cc1 | inconclusive: 29.1 µM [falling, single point]
COc1ccc2cc(S(=O)(=O)c3ccccc3F)c(=O)oc2c1 | inactive
CCn1cnc2cc([N+](=O)[O-])ccc21 | inconclusive: 29.1 µM [activator, single point]
COc1ccc(-c2c(C3C4C=CCC(C)C4C(=O)N3Cc3ccccc3)ccc3ccccc23)cc1OC (configuration not stated) | active: 20.6 µM
CC1=CC(C)C2C(=O)N(c3ccccc3)NC(=O)C2C1 (configuration not stated) | inactive
COc1cc(CCC(=O)OCC(=O)NC2CCCC(C)C2C)cc(OC)c1OC (configuration not stated) | inconclusive: 29.1 µM [falling, single point]
CCn1c(C)cc(C(=O)CN2C(=O)c3ccccc3S2(=O)=O)c1C | active: 3.66 µM
Clc1ccc(CCNc2ncnc3nc[nH]c23)cc1 | inconclusive: 16.4 µM [falling, partial curve]
Cc1cc(N(C)N)nc(NC(=O)NS(=O)(=O)c2ccccc2Cl)n1 | inactive
COCCCn1c(=O)c2sccc2n(Cc2ccc(C)cc2)c1=O | inconclusive: 20.6 µM [falling, partial curve, poor fit]
CCOC(=O)c1cc(-c2ccc(C)cc2)n(CCC(=O)NCc2ccccc2)c1C | active: 8.2 µM
N/C(=N\OC(=O)Cc1ccccc1)c1ccccc1Cl | inconclusive: 7.31 µM [activator, partial curve]
CC(Oc1ccc(F)cc1)c1ccnc2nc(/N=C/N(C)C)nn12 (configuration not stated) | inactive
COc1ccc(NC(=O)CC23CC4CC(C2)CC(n2nnc(C)n2)(C4)C3)cc1 | inconclusive: 6.51 µM [activator, full curve, poor fit]
Cc1cc(C)cc(-n2ncc3c2CCCC3NC(=O)C2(C(N)=O)CC2)c1 (configuration not stated) | inconclusive: 20.6 µM [falling, single point]
O=C(Nc1ccc(Cl)cc1Cl)c1ccc(-c2ccccc2)cc1 | inconclusive: 5.8 µM [falling, full curve]
CCC1C(C#N)=C(SC)NC2=C1C(=O)CC(C)(C)C2 (configuration not stated) | inconclusive: 3.66 µM [falling, partial curve, poor fit]
CC(=O)c1c(C)[nH]c(C(=O)OCC(=O)c2ccc3c(c2)NC(=O)CO3)c1C | inconclusive: 8.2 µM [falling, partial curve, poor fit]

4 entries already listed, arranged by molecular weight, smallest number first.
Compound | Potency
CCC1C(C#N)=C(SC)NC2=C1C(=O)CC(C)(C)C2 (configuration not stated) | inconclusive: 3.66 µM [falling, partial curve, poor fit]
COc1ccc(NC(=O)CC23CC4CC(C2)CC(n2nnc(C)n2)(C4)C3)cc1 | inconclusive: 6.51 µM [activator, full curve, poor fit]
COc1cc([N+](=O)[O-])cc(/C=C2/SC(=S)N(Cc3ccccc3)C2=O)c1O | active: 20.6 µM
O=C(Nc1ccc(S(=O)(=O)N2CCCC2)cc1)C1CCN(S(=O)(=O)c2ccc(F)cc2)CC1 | active: 23.1 µM
